Values quoted from earlier work as cited in publication PMC10052025 (Pharmaceutics, 2023).

Target: T1, OATP1B1 (Homo sapiens, UniProt Q9Y6L6)
T1 sequence (Q9Y6L6 1-691): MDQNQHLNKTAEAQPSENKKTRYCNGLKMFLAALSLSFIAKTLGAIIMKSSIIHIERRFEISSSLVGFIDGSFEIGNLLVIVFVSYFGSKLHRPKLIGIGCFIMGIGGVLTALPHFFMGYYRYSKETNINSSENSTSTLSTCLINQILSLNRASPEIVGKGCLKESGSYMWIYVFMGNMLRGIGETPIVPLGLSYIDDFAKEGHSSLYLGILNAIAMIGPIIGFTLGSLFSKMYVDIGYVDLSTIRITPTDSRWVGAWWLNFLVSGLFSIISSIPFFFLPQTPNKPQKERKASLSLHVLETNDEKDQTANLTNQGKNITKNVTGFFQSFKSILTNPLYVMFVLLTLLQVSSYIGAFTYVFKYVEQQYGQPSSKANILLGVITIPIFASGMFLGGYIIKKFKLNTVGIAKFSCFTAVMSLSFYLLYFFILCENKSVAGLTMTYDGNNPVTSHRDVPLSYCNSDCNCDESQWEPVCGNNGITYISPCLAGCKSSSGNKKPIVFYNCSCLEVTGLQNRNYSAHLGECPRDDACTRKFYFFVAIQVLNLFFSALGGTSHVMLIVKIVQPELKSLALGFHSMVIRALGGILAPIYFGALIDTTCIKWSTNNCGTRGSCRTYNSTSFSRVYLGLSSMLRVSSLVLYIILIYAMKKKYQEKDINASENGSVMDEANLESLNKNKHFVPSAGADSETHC
Design: FLAG; expressed in transfected cells
Details: 20 µM; cited from earlier work

## COC(=O)C1=C(C)NC(C)=C(C(=O)OC)C1c1ccccc1[N+](=O)[O-] [nifedipine]
  inhibition of OATP1B1-mediated transport: > 50%
